Results deposited as PubChem BioAssay AID743121 (NCATS, 2013).
Test: 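Genes whose silencing strengthens cell killing by camptothecin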 (primary screen). Cell system: MDA-MB-231 cells, a human breast cancer line. Reagent: single siRNA against human genes, 20 nM siRNA (0.8 pmol per well). Duration: 120 h (drug added 48 h after transfection, read 72 h later). Treatment: camptothecin 20 nM (about EC30) for 72 h; vehicle 0.1% DMSO in parallel plates. Detection: 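Cell viability by ATP luminescence (CellTiter-Glo) as % of non-targeting siRNA wells, and the log2 ratio of viability without drug over viability with camptothecin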. Direction: log2 vehicle/camptothecin viability: higher = stronger sensitisation to camptothecin; viability with camptothecin: higher = more viable cells. Active means: 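Each gene scored by redundant siRNA activity (RSA) over its individual siRNA ratios; a gene is called active at p < 0.001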.
This is an unselected part of about 26,000 reagents tested. 167 of all reagents (0.63%) count as active. 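Calls are per gene from RSA p-values that are not deposited; an individual active-marked siRNA can sensitise only weakly.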 Unmarked entries are inactive. Reagents against one gene are numbered here. Not all columns of the deposit are shown.

How did the screen score CTDSPL #1?
log2 vehicle/camptothecin viability: -0.255; viability with camptothecin (% of control): 60

How did the screen score CTDSPL #2?
log2 vehicle/camptothecin viability: 1.09; viability with camptothecin (% of control): 22.4

With CTDSPL #3, what was measured?
log2 vehicle/camptothecin viability: -0.163; viability with camptothecin (% of control): 122

What is on record for CTDSPL #4?
log2 vehicle/camptothecin viability: -0.173; viability with camptothecin (% of control): 38.2

How did the screen score KIF7 #1?
log2 vehicle/camptothecin viability: 0.201; viability with camptothecin (% of control): 57.2

Which result is listed for KIF7 #2?
log2 vehicle/camptothecin viability: 0.0713; viability with camptothecin (% of control): 19.6

Which result is listed for KIF7 #3?
log2 vehicle/camptothecin viability: -0.272; viability with camptothecin (% of control): 33.6

With KIF7 #4, what was measured?
log2 vehicle/camptothecin viability: -0.409; viability with camptothecin (% of control): 99.3

What did the screen give for ALPG #1?
log2 vehicle/camptothecin viability: 0.325; viability with camptothecin (% of control): 11.3

For ALPG #2, what was measured?
log2 vehicle/camptothecin viability: -0.0249; viability with camptothecin (% of control): 81.7

For ALPG #3, how do the results read?
log2 vehicle/camptothecin viability: 0.363; viability with camptothecin (% of control): 37.1

What did the screen give for PPP5C #1?
log2 vehicle/camptothecin viability: 0.341; viability with camptothecin (% of control): 44.1

Which result is listed for PPP5C #2?
log2 vehicle/camptothecin viability: -0.205; viability with camptothecin (% of control): 64.1

Which result is listed for PPP5C #3?
log2 vehicle/camptothecin viability: -0.496; viability with camptothecin (% of control): 101

How did the screen score PPP5C #4?
log2 vehicle/camptothecin viability: -0.104; viability with camptothecin (% of control): 66.7

For IFNA10 #1, what was measured?
log2 vehicle/camptothecin viability: -0.18; viability with camptothecin (% of control): 101

What did the screen give for IFNA10 #2?
log2 vehicle/camptothecin viability: -0.153; viability with camptothecin (% of control): 93.5

As entered above:
IFNA10 #1, viability with camptothecin (% of control): 101
Under “viability with camptothecin (% of control)”, ALPG #3 is entered as 37.1
Under “log2 vehicle/camptothecin viability”, KIF7 #4 shows -0.409
Entry of KIF7 #1 under “log2 vehicle/camptothecin viability”: 0.201

More reagents:
For ACBD3 #1, what does the deposit list?
log2 vehicle/camptothecin viability: 0.448; viability with camptothecin (% of control): 55.9

For ACBD3 #2, how do the results read?
log2 vehicle/camptothecin viability: 0.013; viability with camptothecin (% of control): 102

With ACBD3 #3, what was measured?
log2 vehicle/camptothecin viability: 0.123; viability with camptothecin (% of control): 76.2

What did the screen give for PAX2 #1?
log2 vehicle/camptothecin viability: -0.0988; viability with camptothecin (% of control): 60.2

With PAX2 #2, what was measured?
log2 vehicle/camptothecin viability: 0.225; viability with camptothecin (% of control): 29.3

With PAX2 #3, what was measured?
log2 vehicle/camptothecin viability: -0.808; viability with camptothecin (% of control): 75.1

For PAX2 #4, how do the results read?
log2 vehicle/camptothecin viability: 0.0989; viability with camptothecin (% of control): 97.4

With ULK2 #1, how do the results read?
log2 vehicle/camptothecin viability: -0.289; viability with camptothecin (% of control): 106

With ULK2 #2, how do the results read?
log2 vehicle/camptothecin viability: -0.206; viability with camptothecin (% of control): 97.2

What did the screen give for ULK2 #3?
log2 vehicle/camptothecin viability: -0.519; viability with camptothecin (% of control): 50.7

For ULK2 #4, how do the results read?
log2 vehicle/camptothecin viability: -0.212; viability with camptothecin (% of control): 43.2

For STAR #1, how do the results read?
log2 vehicle/camptothecin viability: 0.122; viability with camptothecin (% of control): 49.7

What did the screen give for STAR #2?
log2 vehicle/camptothecin viability: -0.459; viability with camptothecin (% of control): 78.5

With STAR #3, what does the deposit list?
log2 vehicle/camptothecin viability: -0.00759; viability with camptothecin (% of control): 86

For STAR #4, what was measured?
log2 vehicle/camptothecin viability: 0.0205; viability with camptothecin (% of control): 35

How did the screen score ZIC2 #1?
log2 vehicle/camptothecin viability: 0.282; viability with camptothecin (% of control): 55

What is on record for ZIC2 #2?
log2 vehicle/camptothecin viability: 0.246; viability with camptothecin (% of control): 63.4

Which result is listed for ZIC2 #3?
log2 vehicle/camptothecin viability: 0.0187; viability with camptothecin (% of control): 107

For ZIC2 #4, what does the deposit list?
log2 vehicle/camptothecin viability: -0.49; viability with camptothecin (% of control): 76.8
